In the supplement of paper PMC12823440, “Inhibitors supercharge kinase turnover through native proteolytic circuits” (Nature, 2025):
The other results are listed elsewhere or left out. Hit calls seldom repeat between salt and free forms of one compound.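 Kinases were expressed as nanoluciferase fusions in K562 cells and luminescence was read every 4 h between 2 and 18 h as percent of control, DMSO set to 100% and a positive control to 0%. A time point counts as decreased when the signal drops significantly (2 sigma). The hit call is the authors' own, does not follow from the count of time points alone, and its rule is not shown.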

By UniProt entry, the sequences of proteins in these tests, tags left out. Where a name states a change or a piece, a line headed by the entry shows the natural chain unless it says otherwise.
UniProt P07949, whole entry, looked up: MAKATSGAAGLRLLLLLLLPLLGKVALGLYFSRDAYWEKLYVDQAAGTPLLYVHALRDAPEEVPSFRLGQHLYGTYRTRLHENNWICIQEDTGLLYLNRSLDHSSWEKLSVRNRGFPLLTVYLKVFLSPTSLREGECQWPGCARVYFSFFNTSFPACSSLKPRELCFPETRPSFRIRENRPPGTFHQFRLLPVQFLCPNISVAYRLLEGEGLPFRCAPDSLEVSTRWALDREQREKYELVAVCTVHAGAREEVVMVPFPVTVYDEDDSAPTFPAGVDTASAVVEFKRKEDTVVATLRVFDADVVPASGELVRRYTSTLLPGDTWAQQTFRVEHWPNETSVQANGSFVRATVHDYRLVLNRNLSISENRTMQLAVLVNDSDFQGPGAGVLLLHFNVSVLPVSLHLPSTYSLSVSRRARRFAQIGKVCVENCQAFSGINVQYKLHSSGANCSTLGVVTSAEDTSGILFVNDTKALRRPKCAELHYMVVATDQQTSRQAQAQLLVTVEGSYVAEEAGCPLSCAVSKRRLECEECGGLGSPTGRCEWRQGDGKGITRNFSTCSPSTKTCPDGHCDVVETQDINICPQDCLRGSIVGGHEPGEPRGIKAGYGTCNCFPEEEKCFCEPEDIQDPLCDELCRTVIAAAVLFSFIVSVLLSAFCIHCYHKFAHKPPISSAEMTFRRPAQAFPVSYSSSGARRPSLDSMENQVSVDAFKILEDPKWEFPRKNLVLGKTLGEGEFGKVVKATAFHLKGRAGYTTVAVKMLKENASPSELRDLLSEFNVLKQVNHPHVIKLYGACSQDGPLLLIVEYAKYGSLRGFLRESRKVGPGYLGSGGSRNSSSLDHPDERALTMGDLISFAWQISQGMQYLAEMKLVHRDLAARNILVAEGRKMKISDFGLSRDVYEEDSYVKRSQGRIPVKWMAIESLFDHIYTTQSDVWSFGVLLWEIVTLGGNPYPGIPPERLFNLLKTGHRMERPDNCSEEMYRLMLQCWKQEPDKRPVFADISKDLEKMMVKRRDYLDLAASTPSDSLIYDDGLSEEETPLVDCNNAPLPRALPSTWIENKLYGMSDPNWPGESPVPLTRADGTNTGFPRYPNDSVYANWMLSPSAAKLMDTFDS
UniProt P07949, whole entry M918T, looked up: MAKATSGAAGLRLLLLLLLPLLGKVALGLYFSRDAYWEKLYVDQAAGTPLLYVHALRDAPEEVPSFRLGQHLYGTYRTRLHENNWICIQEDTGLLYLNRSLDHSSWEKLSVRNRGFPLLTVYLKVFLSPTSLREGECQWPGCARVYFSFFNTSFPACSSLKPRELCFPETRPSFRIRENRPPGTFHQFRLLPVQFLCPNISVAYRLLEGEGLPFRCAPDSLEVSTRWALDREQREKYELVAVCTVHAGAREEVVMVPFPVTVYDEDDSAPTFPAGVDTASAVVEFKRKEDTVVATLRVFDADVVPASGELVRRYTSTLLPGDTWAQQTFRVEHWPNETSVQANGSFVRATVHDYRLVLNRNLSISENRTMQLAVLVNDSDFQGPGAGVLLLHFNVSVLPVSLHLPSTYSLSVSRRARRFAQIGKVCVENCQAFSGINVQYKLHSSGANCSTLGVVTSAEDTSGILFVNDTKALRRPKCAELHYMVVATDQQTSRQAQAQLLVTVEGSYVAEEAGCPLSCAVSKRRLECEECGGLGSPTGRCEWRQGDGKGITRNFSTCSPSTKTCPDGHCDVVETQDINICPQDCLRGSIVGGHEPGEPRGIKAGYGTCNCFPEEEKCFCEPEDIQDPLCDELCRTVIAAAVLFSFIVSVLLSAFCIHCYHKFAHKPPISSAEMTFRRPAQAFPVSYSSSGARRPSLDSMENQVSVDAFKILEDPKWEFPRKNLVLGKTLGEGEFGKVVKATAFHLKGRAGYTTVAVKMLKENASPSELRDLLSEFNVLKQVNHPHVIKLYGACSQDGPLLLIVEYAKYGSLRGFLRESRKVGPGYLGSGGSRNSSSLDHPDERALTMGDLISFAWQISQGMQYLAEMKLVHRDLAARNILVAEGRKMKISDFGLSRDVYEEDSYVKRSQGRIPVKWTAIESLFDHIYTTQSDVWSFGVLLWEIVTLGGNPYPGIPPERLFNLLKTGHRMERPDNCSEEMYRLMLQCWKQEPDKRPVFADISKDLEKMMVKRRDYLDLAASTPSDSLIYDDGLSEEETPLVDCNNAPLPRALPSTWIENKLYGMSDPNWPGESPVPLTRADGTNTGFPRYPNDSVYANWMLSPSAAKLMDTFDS
UniProt Q9BRS2: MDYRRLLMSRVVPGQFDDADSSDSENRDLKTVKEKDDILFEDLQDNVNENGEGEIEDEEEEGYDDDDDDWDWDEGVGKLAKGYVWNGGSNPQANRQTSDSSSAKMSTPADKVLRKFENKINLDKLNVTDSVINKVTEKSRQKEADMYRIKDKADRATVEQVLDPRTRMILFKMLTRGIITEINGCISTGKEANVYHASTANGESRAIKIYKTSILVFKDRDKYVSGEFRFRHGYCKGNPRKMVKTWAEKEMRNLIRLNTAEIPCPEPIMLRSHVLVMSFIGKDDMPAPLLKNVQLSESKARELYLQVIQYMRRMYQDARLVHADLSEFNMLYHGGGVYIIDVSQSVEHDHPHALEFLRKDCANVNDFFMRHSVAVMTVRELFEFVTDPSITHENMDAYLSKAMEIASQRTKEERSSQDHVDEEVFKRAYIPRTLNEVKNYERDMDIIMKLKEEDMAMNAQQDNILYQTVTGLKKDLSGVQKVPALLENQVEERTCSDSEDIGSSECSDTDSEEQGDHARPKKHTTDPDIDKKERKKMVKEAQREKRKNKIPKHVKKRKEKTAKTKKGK
UniProt Q13546: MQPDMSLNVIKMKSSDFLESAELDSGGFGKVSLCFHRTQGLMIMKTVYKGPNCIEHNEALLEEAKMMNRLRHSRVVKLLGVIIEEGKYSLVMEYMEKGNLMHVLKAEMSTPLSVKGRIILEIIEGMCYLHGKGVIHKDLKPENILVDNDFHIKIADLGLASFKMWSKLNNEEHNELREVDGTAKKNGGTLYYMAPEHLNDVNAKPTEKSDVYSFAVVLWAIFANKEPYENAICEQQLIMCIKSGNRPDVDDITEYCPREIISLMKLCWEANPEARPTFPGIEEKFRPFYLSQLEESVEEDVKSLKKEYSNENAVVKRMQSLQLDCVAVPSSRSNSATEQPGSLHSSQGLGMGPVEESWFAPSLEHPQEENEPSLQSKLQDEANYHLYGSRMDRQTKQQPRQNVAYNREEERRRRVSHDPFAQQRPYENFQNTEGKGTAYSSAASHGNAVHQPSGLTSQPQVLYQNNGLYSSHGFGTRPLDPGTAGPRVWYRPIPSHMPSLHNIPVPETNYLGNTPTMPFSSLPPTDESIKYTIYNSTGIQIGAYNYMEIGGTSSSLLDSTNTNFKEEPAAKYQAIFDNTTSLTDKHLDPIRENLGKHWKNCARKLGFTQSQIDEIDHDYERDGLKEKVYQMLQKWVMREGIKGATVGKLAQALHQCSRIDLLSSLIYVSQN
UniProt Q01974, whole entry: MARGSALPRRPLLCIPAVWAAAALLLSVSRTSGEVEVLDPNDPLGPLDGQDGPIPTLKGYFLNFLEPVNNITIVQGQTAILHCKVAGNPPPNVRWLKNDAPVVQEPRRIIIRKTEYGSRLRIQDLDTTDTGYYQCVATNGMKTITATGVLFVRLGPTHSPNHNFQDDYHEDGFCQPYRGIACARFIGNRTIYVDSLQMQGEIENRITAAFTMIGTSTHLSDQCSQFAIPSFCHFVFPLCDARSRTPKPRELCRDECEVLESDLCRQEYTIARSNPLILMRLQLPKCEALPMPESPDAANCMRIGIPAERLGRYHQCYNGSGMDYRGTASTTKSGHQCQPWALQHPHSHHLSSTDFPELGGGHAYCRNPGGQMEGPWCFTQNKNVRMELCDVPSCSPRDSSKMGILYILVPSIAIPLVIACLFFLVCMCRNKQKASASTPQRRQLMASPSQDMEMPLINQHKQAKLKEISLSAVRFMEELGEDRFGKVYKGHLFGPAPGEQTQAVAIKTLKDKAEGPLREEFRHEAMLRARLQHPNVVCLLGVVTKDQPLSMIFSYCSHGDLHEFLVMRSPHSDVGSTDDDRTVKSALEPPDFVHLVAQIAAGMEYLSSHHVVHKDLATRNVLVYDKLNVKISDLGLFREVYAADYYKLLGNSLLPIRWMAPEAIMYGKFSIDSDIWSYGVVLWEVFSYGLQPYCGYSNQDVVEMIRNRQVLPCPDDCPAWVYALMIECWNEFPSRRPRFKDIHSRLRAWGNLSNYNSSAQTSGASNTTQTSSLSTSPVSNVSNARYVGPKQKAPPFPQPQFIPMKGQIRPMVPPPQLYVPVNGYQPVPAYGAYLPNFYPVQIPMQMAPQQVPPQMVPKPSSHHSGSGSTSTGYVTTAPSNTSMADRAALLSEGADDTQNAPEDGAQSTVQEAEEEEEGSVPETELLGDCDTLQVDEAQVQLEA
UniProt Q15418, whole entry: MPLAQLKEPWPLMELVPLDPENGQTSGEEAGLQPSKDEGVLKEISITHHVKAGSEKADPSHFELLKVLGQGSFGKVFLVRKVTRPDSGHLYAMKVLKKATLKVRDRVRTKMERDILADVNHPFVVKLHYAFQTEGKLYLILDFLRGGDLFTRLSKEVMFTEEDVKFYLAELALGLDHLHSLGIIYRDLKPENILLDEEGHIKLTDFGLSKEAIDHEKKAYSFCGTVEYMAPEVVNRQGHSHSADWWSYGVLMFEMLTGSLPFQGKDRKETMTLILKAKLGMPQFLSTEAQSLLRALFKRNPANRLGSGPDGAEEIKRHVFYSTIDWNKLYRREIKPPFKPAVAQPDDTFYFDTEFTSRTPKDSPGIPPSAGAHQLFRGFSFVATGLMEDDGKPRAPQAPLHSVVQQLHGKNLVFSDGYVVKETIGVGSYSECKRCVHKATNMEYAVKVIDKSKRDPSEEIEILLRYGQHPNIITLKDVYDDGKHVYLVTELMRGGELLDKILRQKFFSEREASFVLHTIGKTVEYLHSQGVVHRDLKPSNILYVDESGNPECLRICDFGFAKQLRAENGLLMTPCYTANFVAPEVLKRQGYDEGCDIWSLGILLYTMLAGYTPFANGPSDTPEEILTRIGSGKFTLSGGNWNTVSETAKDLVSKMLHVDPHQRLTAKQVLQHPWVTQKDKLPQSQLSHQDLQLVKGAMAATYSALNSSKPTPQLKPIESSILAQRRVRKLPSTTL
UniProt Q9NYA1, whole entry: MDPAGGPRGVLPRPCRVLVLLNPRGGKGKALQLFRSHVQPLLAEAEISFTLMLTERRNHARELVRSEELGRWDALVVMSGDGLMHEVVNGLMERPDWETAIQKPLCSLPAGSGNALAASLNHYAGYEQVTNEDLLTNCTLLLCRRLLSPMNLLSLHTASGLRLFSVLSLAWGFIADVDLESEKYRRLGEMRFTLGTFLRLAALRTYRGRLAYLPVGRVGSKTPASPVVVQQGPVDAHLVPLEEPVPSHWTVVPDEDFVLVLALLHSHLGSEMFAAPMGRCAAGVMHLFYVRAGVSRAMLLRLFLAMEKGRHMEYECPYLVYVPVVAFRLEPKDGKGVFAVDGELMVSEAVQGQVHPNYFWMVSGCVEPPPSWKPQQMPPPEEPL
UniProt Q9Y6E0: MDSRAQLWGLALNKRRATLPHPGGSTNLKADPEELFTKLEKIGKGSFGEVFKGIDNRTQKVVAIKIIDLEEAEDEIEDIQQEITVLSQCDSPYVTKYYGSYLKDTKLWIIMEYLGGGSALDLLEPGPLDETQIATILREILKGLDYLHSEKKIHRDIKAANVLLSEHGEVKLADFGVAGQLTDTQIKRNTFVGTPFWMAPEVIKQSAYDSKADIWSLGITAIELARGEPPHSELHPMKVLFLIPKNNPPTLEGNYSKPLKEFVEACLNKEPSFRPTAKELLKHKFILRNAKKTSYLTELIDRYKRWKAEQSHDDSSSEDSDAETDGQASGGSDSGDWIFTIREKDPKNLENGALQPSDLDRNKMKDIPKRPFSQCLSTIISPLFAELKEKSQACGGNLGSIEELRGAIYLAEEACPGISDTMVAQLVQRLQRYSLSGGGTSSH

Columns and labels:
Assay in all cases: kinase-Nluc reporter destabilization hit call (1 = scored as downregulated) (binary); higher = compound decreases kinase abundance
Details in all cases: K562; 2-18 h
RET = RET (UniProt P07949)
[1] = target: RET_M918T (clone: RET_mut) (UniProt P07949)
RIOK1 = RIOK1 (UniProt Q9BRS2)
RIPK1 = RIPK1 (UniProt Q13546)
RIPK2 = RIPK2 (UniProt O43353)
ROR2 = ROR2 (UniProt Q01974)
RPS6KA1 = RPS6KA1 (UniProt Q15418)
SPHK1 = SPHK1 (UniProt Q9NYA1)
SRC = SRC (UniProt P12931)
STK24 = STK24 (UniProt Q9Y6E0)

Measured: kinase-Nluc reporter destabilization hit call

CC(C)=CC(=O)CCC(=O)N1CCN(Cc2cc3nc(-c4cccc5[nH]ncc45)nc(N4CCOCC4)c3s2)CC1 (10 µM)
active: SPHK1 = 1
inactive: RET 0 | [1] 0 | RIOK1 = 0 | RIPK1 = 0 | RIPK2 = 0 | ROR2 = 0 | RPS6KA1 = 0 | SRC 0 | STK24 = 0

COc1ccc(CC(=O)Nc2nc3c(s2)CCc2ccccc2-3)cc1OC (10 µM)
inactive: RET 0 | [1] 0 | RIOK1 = 0 | RIPK1 = 0 | RIPK2 = 0 | ROR2 = 0 | RPS6KA1 = 0 | SPHK1 = 0 | SRC 0 | STK24 = 0

O=C(/C=C/c1ccc(O)c(O)c1)c1ccc(O[C@@H]2O[C@H](CO)[C@@H](O)[C@H](O)[C@H]2O)c(O)c1O [Marein] (10 µM)
inactive: RET 0 | [1] 0 | RIOK1 = 0 | RIPK1 = 0 | RIPK2 = 0 | ROR2 = 0 | RPS6KA1 = 0 | SPHK1 = 0 | SRC 0 | STK24 = 0

Cn1c(=O)c(F)c(Nc2ccc(I)cc2F)c2c(=O)n(C[C@@H](O)CO)cnc21 (10 µM)
inactive: RET 0 | [1] 0 | RIOK1 = 0 | RIPK1 = 0 | RIPK2 = 0 | ROR2 = 0 | RPS6KA1 = 0 | SPHK1 = 0 | SRC 0 | STK24 = 0

CNc1nc(Nc2cnn(C3CCN(C4COC4)CC3F)c2Cl)ncc1C(F)(F)F (stereo not given) (10 µM)
inactive: RET 0 | [1] 0 | RIOK1 = 0 | RIPK1 = 0 | RIPK2 = 0 | ROR2 = 0 | RPS6KA1 = 0 | SPHK1 = 0 | SRC 0 | STK24 = 0

O=[N+]([O-])c1cc(C(F)(F)F)cc([N+](=O)[O-])c1NNC(=S)Nc1ccc(F)cc1 (10 µM)
inactive: RET 0 | [1] 0 | RIOK1 = 0 | RIPK1 = 0 | RIPK2 = 0 | ROR2 = 0 | RPS6KA1 = 0 | SPHK1 = 0 | SRC 0 | STK24 = 0

Fc1ccc(-c2nc(-c3c(F)cccc3F)[nH]c2-c2ccncc2)cc1 (10 µM)
inactive: RET 0 | [1] 0 | RIOK1 = 0 | RIPK1 = 0 | RIPK2 = 0 | ROR2 = 0 | RPS6KA1 = 0 | SPHK1 = 0 | SRC 0 | STK24 = 0

Cc1ccc(Oc2nc3cc(-c4ccc5c(ccn5C)c4)c(Cl)cc3[nH]2)cc1C(=O)O (10 µM)
inactive: RET 0 | [1] 0 | RIOK1 = 0 | RIPK1 = 0 | RIPK2 = 0 | ROR2 = 0 | RPS6KA1 = 0 | SPHK1 = 0 | SRC 0 | STK24 = 0

O=c1cc(O)cc(/C=C/c2ccc(O)c(O)c2)o1 [Hispidin] (10 µM)
inactive: RET 0 | [1] 0 | RIOK1 = 0 | RIPK1 = 0 | RIPK2 = 0 | ROR2 = 0 | RPS6KA1 = 0 | SPHK1 = 0 | SRC 0 | STK24 = 0

COc1ccc(Cl)cc1NC(=O)Nc1cc(C)nc2ccccc12 (2.5 µM)
inactive: RET 0 | [1] 0 | RIOK1 = 0 | RIPK1 = 0 | RIPK2 = 0 | ROR2 = 0 | RPS6KA1 = 0 | SPHK1 = 0 | SRC 0 | STK24 = 0

C[C@@]1(O)CCC[C@H]1n1c(=O)c(C(F)F)cc2cnc(NC3CCN(S(C)(=O)=O)CC3)nc21 (2.5 µM)
inactive: RET 0 | [1] 0 | RIOK1 = 0 | RIPK1 = 0 | RIPK2 = 0 | ROR2 = 0 | RPS6KA1 = 0 | SPHK1 = 0 | SRC 0 | STK24 = 0

Cc1cc(Nc2nc(N[C@@H](C)c3ccc(F)cc3)c(C#N)cc2F)n[nH]1 (10 µM)
inactive: RET 0 | [1] 0 | RIOK1 = 0 | RIPK1 = 0 | RIPK2 = 0 | ROR2 = 0 | RPS6KA1 = 0 | SPHK1 = 0 | SRC 0 | STK24 = 0

CC(C)NC(=O)N1CC[C@H](NC2=Nc3cc(F)ccc3N(CC(F)F)c3ccc(Cl)cc32)C1 (10 µM)
inactive: RET 0 | [1] 0 | RIOK1 = 0 | RIPK1 = 0 | RIPK2 = 0 | ROR2 = 0 | RPS6KA1 = 0 | SPHK1 = 0 | SRC 0 | STK24 = 0

COc1cc(N2CCC(N3CCN(C)CC3)CC2)ccc1Nc1ncc(Cl)c(Nc2ccccc2P(C)(C)=O)n1 [Brigatinib] (2 µM)
inactive: RET 0 | [1] 0 | RIOK1 = 0 | RIPK1 = 0 | RIPK2 = 0 | ROR2 = 0 | RPS6KA1 = 0 | SPHK1 = 0 | SRC 0 | STK24 = 0

C/C(=C1/C(=O)Nc2ccc(NC(N)=O)cc21)c1ccc[nH]1 (10 µM)
inactive: RET 0 | [1] 0 | RIOK1 = 0 | RIPK1 = 0 | RIPK2 = 0 | ROR2 = 0 | RPS6KA1 = 0 | SPHK1 = 0 | SRC 0 | STK24 = 0

COc1cc(S(C)(=O)=O)ccc1Nc1nc2ccc(-c3ccc(NC(=O)[C@H](C)c4ccc(F)cc4)cc3)cn2n1 [Empesertib] (10 µM)
inactive: RET 0 | [1] 0 | RIOK1 = 0 | RIPK1 = 0 | RIPK2 = 0 | ROR2 = 0 | RPS6KA1 = 0 | SPHK1 = 0 | SRC 0 | STK24 = 0

O=C1c2ccc(Nc3ccc(F)cc3F)cc2CCc2ccc(OC[C@H](O)CO)cc21 [Skepinone-L] (2.5 µM)
inactive: RET 0 | [1] 0 | RIOK1 = 0 | RIPK1 = 0 | RIPK2 = 0 | ROR2 = 0 | RPS6KA1 = 0 | SPHK1 = 0 | SRC 0 | STK24 = 0

Of the compounds above, two contain a CF3 group:
CNc1nc(Nc2cnn(C3CCN(C4COC4)CC3F)c2Cl)ncc1C(F)(F)F (stereo not given) (10 µM)
inactive: RET 0 | [1] 0 | RIOK1 = 0 | RIPK1 = 0 | RIPK2 = 0 | ROR2 = 0 | RPS6KA1 = 0 | SPHK1 = 0 | SRC 0 | STK24 = 0

O=[N+]([O-])c1cc(C(F)(F)F)cc([N+](=O)[O-])c1NNC(=S)Nc1ccc(F)cc1 (10 µM)
inactive: RET 0 | [1] 0 | RIOK1 = 0 | RIPK1 = 0 | RIPK2 = 0 | ROR2 = 0 | RPS6KA1 = 0 | SPHK1 = 0 | SRC 0 | STK24 = 0

Following part.

C[C@@H]1O[C@@H](O[C@H]2[C@H](Oc3cc(O)c4c(=O)cc(-c5ccc(O)cc5)oc4c3)O[C@H](CO)[C@@H](O)[C@@H]2O)[C@H](O)[C@H](O)[C@H]1O [Rhoifolin] (10 µM)
inactive: RET 0 | [1] 0 | RIOK1 = 0 | RIPK1 = 0 | RIPK2 = 0 | ROR2 = 0 | RPS6KA1 = 0 | SPHK1 = 0 | SRC 0 | STK24 = 0

Nc1cc(Nc2ccc(S(N)(=O)=O)cc2)ncn1 (10 µM)
inactive: RET 0 | [1] 0 | RIOK1 = 0 | RIPK1 = 0 | RIPK2 = 0 | ROR2 = 0 | RPS6KA1 = 0 | SPHK1 = 0 | SRC 0 | STK24 = 0

O=C(Nc1cccnc1)c1cc(C(=O)c2c(F)cccc2Br)c[nH]1 (10 µM)
inactive: RET 0 | [1] 0 | RIOK1 = 0 | RIPK1 = 0 | RIPK2 = 0 | ROR2 = 0 | RPS6KA1 = 0 | SPHK1 = 0 | SRC 0 | STK24 = 0

CC(C)(C)NC(=O)c1cncn1C1CCN(c2ccc(-c3nnc(C(F)(F)F)o3)cn2)CC1 (10 µM)
inactive: RET 0 | [1] 0 | RIOK1 = 0 | RIPK1 = 0 | RIPK2 = 0 | ROR2 = 0 | RPS6KA1 = 0 | SPHK1 = 0 | SRC 0 | STK24 = 0

O=C1NC(=O)/C(=C/c2ccc3c(c2)OC(F)(F)O3)S1 (10 µM)
inactive: RET 0 | [1] 0 | RIOK1 = 0 | RIPK1 = 0 | RIPK2 = 0 | ROR2 = 0 | RPS6KA1 = 0 | SPHK1 = 0 | SRC 0 | STK24 = 0

COc1cccc(-n2c(=O)[nH]c3cc(Cl)n(-c4ccc(-c5cccc(OC)c5O)cc4)c3c2=O)c1 (2.5 µM)
inactive: RET 0 | [1] 0 | RIOK1 = 0 | RIPK1 = 0 | RIPK2 = 0 | ROR2 = 0 | RPS6KA1 = 0 | SPHK1 = 0 | SRC 0 | STK24 = 0

COCCOc1cnc(Sc2cc(C)c(-c3csc(NC(=O)c4ccncc4)n3)c(C)c2)cn1 [T-1101 (tosylate)] (2.5 µM)
inactive: RET 0 | [1] 0 | RIOK1 = 0 | RIPK1 = 0 | RIPK2 = 0 | ROR2 = 0 | RPS6KA1 = 0 | SPHK1 = 0 | SRC 0 | STK24 = 0

CNC(=O)Nc1ccc(-c2cc(-c3ccnc(Nc4ccc(C)c(S(=O)(=O)N(C)C)c4)n3)ccn2)cc1 [hSMG-1 inhibitor 11e] (2.5 µM)
inactive: RET 0 | [1] 0 | RIOK1 = 0 | RIPK1 = 0 | RIPK2 = 0 | ROR2 = 0 | RPS6KA1 = 0 | SPHK1 = 0 | SRC 0 | STK24 = 0

COc1cc2ncn(-c3cc(OCc4ccccc4S(C)(=O)=O)c(C#N)s3)c2cc1OC (10 µM)
inactive: RET 0 | [1] 0 | RIOK1 = 0 | RIPK1 = 0 | RIPK2 = 0 | ROR2 = 0 | RPS6KA1 = 0 | SPHK1 = 0 | SRC 0 | STK24 = 0

Nc1nccc(Oc2ccc(NC(=O)c3cn(COP(=O)(O)O)cc(-c4ccc(F)cc4)c3=O)cc2F)c1Cl (10 µM)
inactive: RET 0 | [1] 0 | RIOK1 = 0 | RIPK1 = 0 | RIPK2 = 0 | ROR2 = 0 | RPS6KA1 = 0 | SPHK1 = 0 | SRC 0 | STK24 = 0

COc1ccc(Cn2cc(C(=O)N=Nc3c(O)[nH]c4c(C)cccc34)nn2)cc1 [MARK4 inhibitor 1] (10 µM)
inactive: RET 0 | [1] 0 | RIOK1 = 0 | RIPK1 = 0 | RIPK2 = 0 | ROR2 = 0 | RPS6KA1 = 0 | SPHK1 = 0 | SRC 0 | STK24 = 0

CCN(CC)S(=O)(=O)c1ccc(OC)c(N2CCN(C(=O)c3ccc(F)cc3C(F)(F)F)CC2)c1 (10 µM)
inactive: RET 0 | [1] 0 | RIOK1 = 0 | RIPK1 = 0 | RIPK2 = 0 | ROR2 = 0 | RPS6KA1 = 0 | SPHK1 = 0 | SRC 0 | STK24 = 0

C=C(CCC=C(C)C)[C@H]1CC[C@]2(C)[C@@H]1[C@H](O)C[C@@H]1[C@@]3(C)CC[C@H](O[C@@H]4O[C@H](CO)[C@@H](O)[C@H](O)[C@H]4O[C@@H]4O[C@H](CO)[C@@H](O)[C@H](O)[C@H]4O)C(C)(C)[C@@H]3CC[C@]12C [Ginsenoside Rk1] (10 µM)
inactive: RET 0 | [1] 0 | RIOK1 = 0 | RIPK1 = 0 | RIPK2 = 0 | ROR2 = 0 | RPS6KA1 = 0 | SPHK1 = 0 | SRC 0 | STK24 = 0
